Experimental data: the supplement of paper PMC10338343
± gives the standard deviation. The list shows a part of the results, in another mix than the full data. Many of these values have a large error.

The sequences below were run on MILI (PIWIL2) piRISC loaded with piRNA #2 (26 nt) (assay: pre-steady-state target cleavage rate (min^-1); MIWI and MILI are mouse PIWI proteins and EfPiwi is from a freshwater sponge; tags in brackets are library labels; higher = faster piRNA-guided slicing of the target). Conditions: guide: piRNA #2 5'p-UUAGGUAACCCAGUAGAUCCAGAGGA; auxiliary factor: 500 nM mouse GTSF1.
Method: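 Cleave-'n-Seq: a library of target RNAs (target site embedded in constant flanks, ACAGCATTCCGCGTTAGTGATATCCG... 5' flank; DNA-blocked outside the site) at 0.1 nM was incubated with 1 nM active mouse MILI or MIWI piRISC (synthetic 5'-monophosphorylated piRNA guide) with or without 500 nM mouse GTSF1 at 33 °C for 1 min to 16 h. Uncleaved targets were sequenced and normalised to non-target controls, and the pooled three trials were fitted to a burst-and-steady-state model to give the pre-steady-state cleavage rate (min^-1; k3 is constrained to at most 1e-4). Sequence is the target site only; target names encode pairing extent (gX:gY) and contiguous / 1-mismatch / 2-mismatch / bulge geometry. Fits with R² ≤ 0 are excluded.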

| Sequence | pre-steady-state target cleavage rate |
| --- | --- |
| CUUAAGGAGACCUUAUACUGGGUUACCUAA | 0.00048 ± 0.017 |
| CUUAAGGACUGGAUCGUACUGGGUUACCUAA | 0.000778 ± 0.02 |
| CUUAACCUCUGGAUCUACUGGCUAACCUAA | 0.000445 ± 0.016 |
| CUUAAGGAGACCUACUACUGCGUUACCUAA | 0.000505 ± 0.011 |
| CUUAAGGAGAGGAUGUACUGGGUAACCUAA | 0.00134 ± 0.011 |
| CUUAAGGAGAGGAUCUCUGGGUUACCUAA | 0.0007 ± 0.014 |
| CUUAAGGAGACGUAUCUACUGGGUUACCUAA | 0.00168 ± 0.0085 |
| CUUAAGGAGUGGAUCUUCUGGGUUACCAAA | 0.00337 ± 0.006 |
| CUUAAGGUCUGGAUCUACUGGGCUUACCUAA | 0.00219 ± 0.0088 |
| CUUAAGGAGACCAUCUACUGCGAUACCUAA | 0.000211 ± 0.017 |
| CUUAAGGAGACCUUCAACUGGGAUACCUAA | 0.000152 ± 0.059 |
| CUUAAGGAGUGGAUCUACUGGCGUUACCUAA | 0.000321 ± 0.018 |
| CUUAAGGAGUGGAUGUACUGGGAUACCUAA | 0.00592 ± 0.0065 |
| CUUAAGGAGACCUUCACUGGGUUACCUAA | 0.000516 ± 0.016 |
| CUUAUCCUCUGGAUCUACUGGGUUAUCUAA | 0.0884 ± 0.015 |
| CUUAAGGAGACCUUCCUACUGGGUUACCUAA | 0.000846 ± 0.0087 |
| CUUAAGCUCUGGAUCUAGUGGCUUACCUAA | 0.000115 ± 0.037 |
| CUUAAGCUCUGGAUCUUCUGGCUUACCUAA | 0.000438 ± 0.021 |
| CUUAAGGAGACCAUCUAUCUGGGUUACCUAA | 0.000756 ± 0.012 |
| CUUAAGGAGACGAUCUACUGCGAUACCUAA | 0.000726 ± 0.0075 |
| CUUAAGGAGACGAUCUACUCCCUUACCUAA | 0.000258 ± 0.0094 |
| CUUAAGGUCUGGAUCUACUUGGUUACCUAA | 0.000737 ± 0.0095 |
| CUUAAGGAGACCUUCUUCUGGCUUACCUAA | 0.000632 ± 0.013 |
| CUUAAGGACUGGAUCUACAGGCUUACCUAA | 0.00164 ± 0.012 |

Some of the entries so far, with bars between the fields:
Sequence | pre-steady-state target cleavage rate
CUUAUCCUCUGGAUCUACUGGGUUAUCUAA | 0.0884 ± 0.015
CUUAAGGAGACCUUCCUACUGGGUUACCUAA | 0.000846 ± 0.0087
CUUAAGCUCUGGAUCUAGUGGCUUACCUAA | 0.000115 ± 0.037

(continued)

| Sequence | pre-steady-state target cleavage rate |
| --- | --- |
| CUUAAGGUGUGGAUCUACUGGGUUACCUUA | 0.0353 ± 0.011 |
| CUUAAGGAGACCUUCUACUGGGUUACCGAA | 0.000162 ± 0.024 |
| CUUAAGGAGAGCAUGUACUGGGUUACCUAA | 0.00235 ± 0.0036 |
| CUUAAGGACUGGAUCUACUGGGUUACCGAA | 0.00161 ± 0.011 |
| CUUAAGGAGACCAUCUACUGCGUUACCAAA | 0.000191 ± 0.037 |
| CUUAAGGACUCGAUCUACUGGGUUACCAAA | 0.0046 ± 0.0054 |
| CUUAAGGACUGGAUCUACUAGGGUUACCUAA | 0.000216 ± 0.037 |
| CUUAUCCUCUGGAUCUACUGGGUUACCUCAA | 0.0973 ± 0.019 |
| CUUAAGGUCUCCUUCUACUGGGUUACCUAA | 0.000891 ± 0.0077 |
| CUUAAGCUCUGGCUCUACUGGGUUACCUAA | 0.163 ± 0.034 |
| CUUAAGGAGACGUCUACUGGGUUACCUAA | 0.00051 ± 0.01 |
| CUUAAGGAGAGGAUCUACUGGGUUACAUAA | 0.000397 ± 0.017 |
| CUUAUCCUCUGGAUCUCCUGGGUUACCUAA | 0.459 ± 0.18 |
| CUUAAGGAGUGGAUACUACUGGGUUACCUAA | 0.00135 ± 0.0094 |
| CUUAAGGUCGGAUCUACUGGGUUACCUAA | 0.0107 ± 0.011 |
| CUUAAGGUCUGGAUCUACUCGGUUACCUAA | 0.000586 ± 0.019 |
| CUUAAGGAGAGGUUCUACUGGGUUUCCUAA | 0.00457 ± 0.0051 |
| CUUAAGGAGACCUUCUACUGGGUUAUCUAA | 0.000799 ± 0.0092 |
| CUUAUCCUCUGCAUCUACUGGGUUACGUAA | 0.483 ± 0.2 |
| CUUAAGGAGACGCUCUACUGGGUUACCUAA | 0.00207 ± 0.0046 |
| CUUAAGGAGACCAUCUAGUGGGUUACCUAA | 0.00125 ± 0.0082 |
| CUUAAGGAGAGGAUCUUCUGGGUUACCAAA | 0.000563 ± 0.017 |
| CUUAACCUCUGGAUCUACUGUGGUUACCUAA | 0.00108 ± 0.0083 |
| CUUAAGGAGACGAUCUACUGGGUUGCCUAA | 0.00438 ± 0.0046 |

| Sequence | pre-steady-state target cleavage rate |
| --- | --- |
| CUUAAGGAGAGGAGCUACUGGGUUACCUAA | 0.00331 ± 0.0043 |
| CUUAAGGAGAGGUUCAACUGGGUUACCUAA | 0.00118 ± 0.0053 |
| CUUAAGGUCUGGAUCUACUGGGAAUCCUAA | 0.00153 ± 0.0057 |
| CUUAAGGACUGGAUCUUCUGCGUUACCUAA | 0.000962 ± 0.021 |
| CUUAUCCUCUGGAACUACUGGCUUACCUAA | 0.00289 ± 0.003 |
| CUUAAGGACUGCGAUCUACUGGGUUACCUAA | 0.00882 ± 0.0099 |
| CUUAAGGAGACCGUCUACUGGGUUACCUAA | 0.000155 ± 0.028 |
| CUUAAGGAGACCUUCUACUGGGUUACCGUAA | 0.000537 ± 0.01 |
| CUUAAGGAGACGAUGUACAGGGUUACCUAA | 0.00178 ± 0.0043 |
| CUUAAGGAGUGGAUGUACUGGGUAACCUAA | 0.0064 ± 0.0083 |
| CUUAUCCUCUGCAUCUACUGCGUUACCUAA | 0.0198 ± 0.0066 |
| CUUAAGGAGACCAAGUACUGGGUUACCUAA | 0.000875 ± 0.0092 |
| CUUAAGGAGACCUACUACUGGGUUACCCAA | 0.000318 ± 0.024 |
| CUUAAGCUCUGGAACUACUCGGUUACCUAA | 0.00214 ± 0.0039 |
| CUUAAGGUCUGGAUCUACUGAGGUUACCUAA | 0.0022 ± 0.0051 |
| CUUAAGGAGAGGUUCUUCUGGGUUACCUAA | 0.00217 ± 0.0036 |
| CUUAAGGAGUGGAUCAACUGGGUUAGCUAA | 0.000369 ± 0.018 |
| CUUAAGGACUGGUUCUACUGCGUUACCUAA | 0.00288 ± 0.013 |
| CUUAAGGAGAGUAUCUACUGGGUUACCUAA | 0.00299 ± 0.0039 |
| CUUAAGGAGACCUAGAUUUGGGUUACCUAA | 0.000358 ± 0.025 |
| CUUAAGGAGAGGUUCUACUGGGUUACGUAA | 0.000139 ± 0.034 |
| CUUAAGGACUGGAUCUACUGGGUAUCCUAA | 0.00113 ± 0.021 |
| CUUAAGGAGACCUAGUACUGGGUUACCUAU [g2:g15:cont:t1U] | 0.000594 ± 0.011 |
| CUUAAGGAGACGAUCUAGUGGGAUACCUAA | 0.000556 ± 0.0092 |
